# Reference: patent US5945509A, “Glutamate receptor compositions and method” (The Salk Institute for Biological Studies, priority 1995, dated 1999)
# Sequences of proteins named here, by UniProt entry; tags and fusion partners are left off. A line that says so, or that is headed by a name, gives the form on record, which may keep a tag or linker. Residues count along the entry.
# UniProt P19490, 19-907: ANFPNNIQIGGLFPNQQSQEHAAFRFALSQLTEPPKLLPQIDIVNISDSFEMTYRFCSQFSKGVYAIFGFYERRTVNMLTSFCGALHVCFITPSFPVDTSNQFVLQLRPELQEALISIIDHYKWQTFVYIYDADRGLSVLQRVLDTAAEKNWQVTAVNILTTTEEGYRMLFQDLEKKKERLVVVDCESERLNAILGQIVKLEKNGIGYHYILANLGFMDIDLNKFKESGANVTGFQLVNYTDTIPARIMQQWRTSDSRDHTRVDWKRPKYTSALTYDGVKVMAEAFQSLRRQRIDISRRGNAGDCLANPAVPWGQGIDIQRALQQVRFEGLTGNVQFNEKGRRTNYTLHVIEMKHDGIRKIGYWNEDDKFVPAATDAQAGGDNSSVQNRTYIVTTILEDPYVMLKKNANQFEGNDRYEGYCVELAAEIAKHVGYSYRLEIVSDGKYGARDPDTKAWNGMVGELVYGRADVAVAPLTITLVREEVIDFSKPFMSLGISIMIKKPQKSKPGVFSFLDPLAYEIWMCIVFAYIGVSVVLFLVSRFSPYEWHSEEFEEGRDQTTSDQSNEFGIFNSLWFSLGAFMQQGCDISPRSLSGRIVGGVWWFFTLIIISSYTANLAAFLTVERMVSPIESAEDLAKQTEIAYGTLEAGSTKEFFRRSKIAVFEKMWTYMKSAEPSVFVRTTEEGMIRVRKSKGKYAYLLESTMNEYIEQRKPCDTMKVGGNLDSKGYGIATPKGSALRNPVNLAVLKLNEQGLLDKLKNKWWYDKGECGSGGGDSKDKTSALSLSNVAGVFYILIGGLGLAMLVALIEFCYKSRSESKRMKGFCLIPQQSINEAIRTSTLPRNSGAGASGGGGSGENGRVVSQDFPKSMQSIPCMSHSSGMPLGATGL
# UniProt P42260, with tags, fused parts or gaps I567V/Y571C/Q621R: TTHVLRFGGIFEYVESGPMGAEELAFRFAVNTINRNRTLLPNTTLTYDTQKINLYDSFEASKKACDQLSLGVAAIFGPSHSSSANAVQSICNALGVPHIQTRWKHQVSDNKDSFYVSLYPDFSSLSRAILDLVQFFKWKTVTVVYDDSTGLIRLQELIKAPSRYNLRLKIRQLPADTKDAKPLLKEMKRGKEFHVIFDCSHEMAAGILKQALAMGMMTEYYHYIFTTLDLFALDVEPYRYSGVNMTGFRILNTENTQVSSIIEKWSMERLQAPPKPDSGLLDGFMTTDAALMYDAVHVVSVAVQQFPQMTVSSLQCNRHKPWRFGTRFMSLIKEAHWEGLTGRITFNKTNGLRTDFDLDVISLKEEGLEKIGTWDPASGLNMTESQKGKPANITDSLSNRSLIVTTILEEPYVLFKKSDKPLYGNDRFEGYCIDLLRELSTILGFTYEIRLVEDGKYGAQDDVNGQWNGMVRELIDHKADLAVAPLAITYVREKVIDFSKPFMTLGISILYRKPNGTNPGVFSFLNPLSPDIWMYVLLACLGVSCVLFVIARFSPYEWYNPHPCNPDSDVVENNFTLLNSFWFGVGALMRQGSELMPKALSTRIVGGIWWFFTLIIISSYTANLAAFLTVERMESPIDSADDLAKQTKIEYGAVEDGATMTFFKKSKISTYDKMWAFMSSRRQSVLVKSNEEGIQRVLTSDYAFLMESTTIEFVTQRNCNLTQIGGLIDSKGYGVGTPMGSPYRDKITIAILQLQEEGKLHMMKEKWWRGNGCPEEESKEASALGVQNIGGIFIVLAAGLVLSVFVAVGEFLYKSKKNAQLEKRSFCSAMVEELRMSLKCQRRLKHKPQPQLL
# For at least one compound, name, drawing or mass did not settle the structure.
# Tests used:
# GluR1 = target: T1, GluR1 (Rattus norvegicus, UniProt P19490); test: Electrophysiological recording in Xenopus oocytes injected with GluR1 in vitro RNA; assay type: cell-based
# T1 construct: expressed in transfected cells; host or cells: Xenopus oocytes injected with in vitro transcribed pGluR1 sense RNA
# Experimental: It depends upon the fact that when foreign mRNA is injected into Xenopus oocytes, the mRNA is translated into functional protein.
# Either a λZAP cDNA preparation, or a plasmid containing the cDNA to be tested, are cut downstream from the cDNA insert with a restriction enzyme. The post-restriction digest is digested with Proteinase K and then extracted with two phenol: chloroform (1:1) extractions. The resulting DNA fragments are then ethanol precipitated. The precipitated fragments are mixed with either T3 RNA polymerase (to make sense strand), or T7 RNA polymerase (to make anti-sense strand), plus rATP, rCTP, rGTP, rUTP, and RNase inhibitor. Simultaneously, the RNA transcripts are capped with a sodium diguanosine triphosphate [G(5')ppp(5')G] cap. The water used for the above procedures is treated with diethylpyrocarbonate to inactivate RNases.
# The in vitro synthesized mRNA transcripts are injected into Xenopus oocytes. […] The injected oocytes are incubated at 16° C. in Barth's medium for 2-7 days before they are analyzed for the presence of functional receptors. […]
# currents were recorded; each number represents the average of 3 recording […]
# The data in FIG. 3B represent the responses of oocytes to the indicated agonists measured 3 days after injection with GluR1 (2 ng) or GluR3 (2 ng) RNA or adult rat brain hippocampus poly(A)^+ RNA (~50 ng). […]
# homomeric GluR6 receptor = target: T2, homomeric GluR6 receptor (Rattus norvegicus, UniProt P42260, I567V/Q621R/Y571C); test: Current recording in Xenopus oocytes injected with GluR6 RNA (homomeric GluR6 receptor); assay type: cell-based
# T2 construct: engineer a cDNA clone encoding the entire open reading frame of the GluR6 protein; expressed in transfected cells; host or cells: Xenopus oocytes injected with in vitro transcribed GluR6 RNA
SMILES,Compound Alone (%) (GluR1),response evoked by glutamate receptor agonists (GluR1),response of Con A treated oocytes (in words) (homomeric GluR6 receptor)
"N[C@H](CCC(=O)NCS(=O)(=O)O)C(=O)O [GAMS, D-glutamylamino-methyl-sulphonate]",1.0 ± 0.6%,–,–
N[C@@H](CC(=O)O)C(=O)O [L-aspartate],–,no responses,did not respond
